Measured values reported in the supplement of paper PMC6078165.

System: MDAMB231
Assay: relative JC-1 red fluorescence (viability) vs pre-drug, coculture with fibroblast (fraction); higher = more viable cancer cells
Description: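 JC-1 labelled TNBC cells cocultured 1:1 (1,500 cells each) with CellTrace Violet stained primary or stromal fibroblasts in 384-well plates in FluoroBrite medium, treated with one of 42 anticancer drugs at 0.1, 1, 10 or 100 uM. JC-1 red fluorescence (mitochondrial integrity in cancer cells only) was read by plate reader every 8 h for 72 h. Values are normalised to each well's pre-drug value. The stock of one drug was tenfold lower, so its dose labels may be too high.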

CC(=O)O[C@@]12CO[C@@H]1C[C@H](O)[C@@]1(C)C(=O)[C@H](O)C3=C(C)[C@@H](OC(=O)[C@H](O)[C@@H](NC(=O)OC(C)(C)C)c4ccccc4)C[C@@](O)([C@@H](OC(=O)c4ccccc4)[C@H]21)C3(C)C [Docetaxel]
relative JC-1 red fluorescence
Details	8 h	16 h	24 h	32 h	40 h	48 h	56 h	64 h	72 h
10 µM, coculture fibroblast: C12385	0.777 ± 0.021	0.788 ± 0.035	0.667 ± 0.014	0.681 ± 0.019	0.624 ± 0.022	0.589 ± 0.016	0.549 ± 0.016	0.54573 ± 0.00052	0.5249 ± 0.0019
10 µM, coculture fibroblast: H6013	0.91778 ± 0.00041	0.902 ± 0.011	0.872 ± 0.013	0.845 ± 0.021	0.816 ± 0.032	0.804 ± 0.036	0.794 ± 0.0098	0.7841 ± 0.0046	0.7575 ± 0.0039
10 µM, coculture fibroblast: H6019	0.8 ± 0.0086	0.7702 ± 0.00093	0.694 ± 0.012	0.669 ± 0.0083	0.6334 ± 0.0027	0.619 ± 0.012	0.602 ± 0.014	0.604 ± 0.018	0.592 ± 0.022
10 µM, coculture fibroblast: H6076	0.8717 ± 0.0028	0.79771 ± 0.00059	0.7408 ± 0.0026	0.719 ± 0.01	0.6794 ± 0.005	0.656 ± 0.0068	0.66 ± 0.013	0.663 ± 0.0073	0.671 ± 0.018
10 µM, coculture fibroblast: H6231	0.949 ± 0.0088	0.876 ± 0.029	0.813 ± 0.064	0.759 ± 0.069	0.718 ± 0.075	0.687 ± 0.11	0.647 ± 0.1	0.625 ± 0.1	0.596 ± 0.11
10 µM, coculture fibroblast: HADF	0.908 ± 0.015	0.886 ± 0.02	0.832 ± 0.034	0.776 ± 0.033	0.735 ± 0.033	0.698 ± 0.04	0.678 ± 0.05	0.657 ± 0.051	0.611 ± 0.048
10 µM, coculture fibroblast: HCFa	0.916 ± 0.012	0.8749 ± 0.0055	0.8199 ± 0.0046	0.7758 ± 0.0074	0.7216 ± 0.00077	0.66 ± 0.0068	0.6454 ± 0.0053	0.6191 ± 0.0019	0.5804 ± 0.0034
10 µM, coculture fibroblast: HCPF	0.9061 ± 0.0054	0.8457 ± 0.0061	0.7945 ± 0.0011	0.7723 ± 0.0059	0.7169 ± 0.0012	0.6828 ± 0.00082	0.646 ± 0.014	0.6181 ± 0.0019	0.5981 ± 0.0055
10 µM, coculture fibroblast: HHSteC	0.9221 ± 0.003	0.9072 ± 0.006	0.8699 ± 0.0055	0.805 ± 0.019	0.757 ± 0.014	0.731 ± 0.021	0.697 ± 0.026	0.676 ± 0.037	0.649 ± 0.034
10 µM, coculture fibroblast: HMF	0.899 ± 0.03	0.831 ± 0.032	0.761 ± 0.034	0.721 ± 0.03	0.674 ± 0.036	0.639 ± 0.037	0.613 ± 0.036	0.6 ± 0.036	0.59 ± 0.035
10 µM, coculture fibroblast: HPFa	0.9367 ± 0.0068	0.9196 ± 0.0049	0.857 ± 0.01	0.793 ± 0.0075	0.772 ± 0.018	0.731 ± 0.021	0.687 ± 0.018	0.667 ± 0.015	0.627 ± 0.014
10 µM, coculture fibroblast: HUF	0.8719 ± 0.0057	0.7742 ± 0.0018	0.808 ± 0.032	0.688 ± 0.029	0.633 ± 0.043	0.625 ± 0.051	0.587 ± 0.062	0.609 ± 0.072	0.608 ± 0.073
10 µM, coculture fibroblast: Hs5	0.926 ± 0.018	0.881 ± 0.02	0.8206 ± 0.0014	0.7642 ± 0.0036	0.732 ± 0.025	0.678 ± 0.027	0.644 ± 0.039	0.625 ± 0.045	0.614 ± 0.065
10 µM, coculture fibroblast: Hs27A	0.9148 ± 0.0039	0.8801 ± 0.005	0.8487 ± 0.0019	0.816 ± 0.0082	0.76 ± 0.017	0.696 ± 0.029	0.721 ± 0.026	0.714 ± 0.022	0.675 ± 0.026
10 µM, coculture fibroblast: Hs343T	0.951 ± 0.011	0.869 ± 0.021	0.792 ± 0.011	0.738 ± 0.021	0.671 ± 0.03	0.626 ± 0.024	0.573 ± 0.014	0.5422 ± 0.0049	0.519 ± 0.012
10 µM, coculture fibroblast: WS1	0.77042 ± 0.00014	0.73822 ± 0.00032	0.628 ± 0.011	0.595 ± 0.014	0.555 ± 0.028	0.522 ± 0.022	0.486 ± 0.024	0.475 ± 0.015	0.453 ± 0.017
100 µM, coculture fibroblast: C12385	0.813 ± 0.017	0.826 ± 0.0096	0.692 ± 0.049	0.716 ± 0.0076	0.651 ± 0.0085	0.632 ± 0.011	0.591 ± 0.014	0.585 ± 0.027	0.571 ± 0.018
100 µM, coculture fibroblast: H6013	0.934 ± 0.024	0.884 ± 0.035	0.859 ± 0.04	0.819 ± 0.025	0.765 ± 0.018	0.741 ± 0.016	0.74 ± 0.014	0.717 ± 0.0094	0.7 ± 0.017
100 µM, coculture fibroblast: H6019	0.802 ± 0.0098	0.729 ± 0.017	0.6566 ± 0.0057	0.654 ± 0.016	0.624 ± 0.0069	0.602 ± 0.0034	0.572 ± 0.0087	0.575 ± 0.028	0.563 ± 0.023
100 µM, coculture fibroblast: H6076	0.95099 ± 0.00079	0.905 ± 0.032	0.87 ± 0.043	0.854 ± 0.064	0.811 ± 0.057	0.782 ± 0.048	0.764 ± 0.057	0.765 ± 0.066	0.78 ± 0.063
100 µM, coculture fibroblast: H6231	0.9615 ± 0.0049	0.905 ± 0.012	0.816 ± 0.029	0.763 ± 0.015	0.7151 ± 0.0052	0.6871 ± 0.0063	0.646 ± 0.0092	0.624 ± 0.0013	0.593 ± 0.012
100 µM, coculture fibroblast: HADF	0.9303 ± 0.0047	0.9074 ± 0.0085	0.84 ± 0.028	0.788 ± 0.019	0.727 ± 0.013	0.674 ± 0.02	0.659 ± 0.017	0.635 ± 0.02	0.595 ± 0.033
100 µM, coculture fibroblast: HCFa	0.94217 ± 0.00082	0.8873 ± 0.0035	0.836 ± 0.037	0.786 ± 0.049	0.723 ± 0.052	0.675 ± 0.056	0.661 ± 0.055	0.639 ± 0.058	0.616 ± 0.059
100 µM, coculture fibroblast: HCPF	0.985 ± 0.017	0.912 ± 0.008	0.832 ± 0.0092	0.81 ± 0.02	0.745 ± 0.038	0.71 ± 0.053	0.682 ± 0.062	0.669 ± 0.077	0.649 ± 0.081
100 µM, coculture fibroblast: HHSteC	0.9515 ± 0.0076	0.915 ± 0.026	0.86 ± 0.014	0.809 ± 0.014	0.765 ± 0.019	0.74 ± 0.033	0.704 ± 0.024	0.698 ± 0.027	0.67 ± 0.032
100 µM, coculture fibroblast: HMF	0.897 ± 0.066	0.938 ± 0.073	0.872 ± 0.089	0.822 ± 0.069	0.772 ± 0.064	0.737 ± 0.056	0.687 ± 0.047	0.659 ± 0.032	0.637 ± 0.035
100 µM, coculture fibroblast: HPFa	0.9684 ± 0.0022	0.9328 ± 0.0087	0.8654 ± 0.0077	0.7953 ± 0.0012	0.775 ± 0.019	0.732 ± 0.019	0.68 ± 0.019	0.66 ± 0.015	0.627 ± 0.012
100 µM, coculture fibroblast: HUF	0.878 ± 0.032	0.796 ± 0.033	0.766 ± 0.044	0.675 ± 0.045	0.635 ± 0.055	0.636 ± 0.051	0.602 ± 0.04	0.613 ± 0.05	0.608 ± 0.047
100 µM, coculture fibroblast: Hs5	0.92 ± 0.04	0.838 ± 0.032	0.7703 ± 0.0021	0.714 ± 0.017	0.67 ± 0.016	0.623 ± 0.015	0.5897 ± 0.0027	0.575 ± 0.012	0.573 ± 0.0092
100 µM, coculture fibroblast: Hs27A	0.9259 ± 0.0079	0.9094 ± 0.0069	0.886 ± 0.0096	0.8586 ± 0.0085	0.8323 ± 0.0081	0.768 ± 0.0097	0.7946 ± 0.0077	0.7873 ± 0.0076	0.7444 ± 0.0045
100 µM, coculture fibroblast: Hs343T	0.862 ± 0.14	0.903 ± 0.032	0.791 ± 0.0083	0.7335 ± 0.0036	0.6633 ± 0.0048	0.605 ± 0.014	0.5442 ± 0.0028	0.527 ± 0.0051	0.501 ± 0.0073
100 µM, coculture fibroblast: WS1	0.807 ± 0.026	0.76 ± 0.013	0.65 ± 0.04	0.653 ± 0.018	0.611 ± 0.015	0.586 ± 0.017	0.548 ± 0.015	0.55 ± 0.022	0.527 ± 0.023

± gives the standard deviation of the averaged measurements. The reference is the same well before dosing, and untreated signal decays as well.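 Fibroblast labels denote human fibroblasts, mainly primary ones from uterus (C12385, HUF), lung (H6013), bone (Hs27A), adrenal (HADF) and skin (WS1), plus mammary HMF and breast cancer-associated Hs343T. Cancer cells are basal-like or mesenchymal-like triple-negative breast cancer lines. A hit is a response shift exceeding 3x replicate standard deviation. The tissue of the other fibroblasts is not given here.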
